Source: PubChem BioAssay AID1159579 (Peter MacCallum Cancer Centre, 2015)
Here is an unselected part of about 2,000 reagents tested. 549 of them (27%) were called active. 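Some migration ratios are negative; siRNAs with too few cells are inactive whatever their migration ratio.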 The numbers tell different reagents against one gene apart. Not given: the time to read-out.

Test: 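Retest candidate lymphatic endothelial migration regulators using several independent siRNAs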 (follow-up of hits)
System: human dermal lymphatic endothelial cells
Reagents: single siRNA against human genes, 25 nM
Measurement: 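High content images of wound closure area and cell nuclei counts, each the average of two wells, expressed against mock transfection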
Reading the numbers: migration relative to mock: higher = more migration into the scratch; mean nuclei count: higher = more cells remaining
Active means: 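Called active when the migration ratio is 0.6 or lower (impaired) or 1.3 or higher (accelerated), but inactive whenever the mean nuclei count falls under 3300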
Meaning of the calls: active = migration changed (impaired or accelerated); inactive = no migration change, or too few cells

| Target gene | reagent | migration relative to mock | migration and cell number class | mean nuclei count | activity call |
| --- | --- | --- | --- | --- | --- |
| ARL6IP1 (ARL6 interacting reticulophagy regulator 1) | 1 | 1.06 | no change in migration or cell number | 5389 | inactive |
| ARL6IP1 (ARL6 interacting reticulophagy regulator 1) | 2 | -0.27 | migration reduced | 3831 | active |
| ARL6IP1 (ARL6 interacting reticulophagy regulator 1) | 3 | 1.02 | no change in migration or cell number | 6262 | inactive |
| ARL6IP1 (ARL6 interacting reticulophagy regulator 1) | 4 | 0.74 | no change in migration or cell number | 4269 | inactive |
| GDF6 (growth differentiation factor 6) | 1 | 0.74 | no change in migration or cell number | 5956 | inactive |
| GDF6 (growth differentiation factor 6) | 2 | 0.93 | no change in migration or cell number | 6029 | inactive |
| GDF6 (growth differentiation factor 6) | 3 | 1.23 | no change in migration or cell number | 5676 | inactive |
| GDF6 (growth differentiation factor 6) | 4 | 1.06 | no change in migration or cell number | 5206 | inactive |
| C5AR1 (complement C5a receptor 1) | 1 | -0.12 | migration reduced | 3395 | active |
| C5AR1 (complement C5a receptor 1) | 2 | 0.98 | no change in migration or cell number | 6686 | inactive |
| C5AR1 (complement C5a receptor 1) | 3 | 0.17 | migration reduced | 5376 | active |
| C5AR1 (complement C5a receptor 1) | 4 | 0.74 | no change in migration or cell number | 6442 | inactive |
| TPST2 (tyrosylprotein sulfotransferase 2) | 1 | 0.48 | migration reduced | 5606 | active |
| TPST2 (tyrosylprotein sulfotransferase 2) | 2 | 0.48 | migration reduced | 4907 | active |
| TPST2 (tyrosylprotein sulfotransferase 2) | 3 | 1.09 | no change in migration or cell number | 5718 | inactive |
| TPST2 (tyrosylprotein sulfotransferase 2) | 4 | 0.92 | no change in migration or cell number | 6285 | inactive |
| TPD52L1 (TPD52 like 1) | 1 | 0.18 | migration reduced | 4494 | active |
| TPD52L1 (TPD52 like 1) | 2 | 0.88 | no change in migration or cell number | 5672 | inactive |
| TPD52L1 (TPD52 like 1) | 3 | 0.37 | migration reduced | 4853 | active |
| TPD52L1 (TPD52 like 1) | 4 | 0.96 | no change in migration or cell number | 6258 | inactive |
| BORCS6 (BLOC-1 related complex subunit 6) | 1 | 0.86 | no change in migration or cell number | 6360 | inactive |
| BORCS6 (BLOC-1 related complex subunit 6) | 2 | 0.5 | migration reduced | 4472 | active |
| BORCS6 (BLOC-1 related complex subunit 6) | 3 | 0.4 | migration reduced | 3330 | active |
| BORCS6 (BLOC-1 related complex subunit 6) | 4 | 0.37 | migration reduced | 4035 | active |

The list goes on; the last 5 above are carried over.
| Target gene | reagent | migration relative to mock | migration and cell number class | mean nuclei count | activity call |
| --- | --- | --- | --- | --- | --- |
| TPD52L1 (TPD52 like 1) | 4 | 0.96 | no change in migration or cell number | 6258 | inactive |
| BORCS6 (BLOC-1 related complex subunit 6) | 1 | 0.86 | no change in migration or cell number | 6360 | inactive |
| BORCS6 (BLOC-1 related complex subunit 6) | 2 | 0.5 | migration reduced | 4472 | active |
| BORCS6 (BLOC-1 related complex subunit 6) | 3 | 0.4 | migration reduced | 3330 | active |
| BORCS6 (BLOC-1 related complex subunit 6) | 4 | 0.37 | migration reduced | 4035 | active |
| PMVK (phosphomevalonate kinase) | 1 | 0.64 | no change in migration or cell number | 5104 | inactive |
| PMVK (phosphomevalonate kinase) | 2 | 0.55 | migration reduced | 5144 | active |
| PMVK (phosphomevalonate kinase) | 3 | 0.19 | migration reduced | 4209 | active |
| PMVK (phosphomevalonate kinase) | 4 | 1.09 | no change in migration or cell number | 6396 | inactive |
| ATG12 (autophagy related 12) | 1 | 0.88 | no change in migration or cell number | 6017 | inactive |
| ATG12 (autophagy related 12) | 2 | 0.72 | no change in migration or cell number | 6428 | inactive |
| ATG12 (autophagy related 12) | 3 | 0.66 | no change in migration or cell number | 6512 | inactive |
| ATG12 (autophagy related 12) | 4 | 1.08 | no change in migration or cell number | 6124 | inactive |
| SERPINA4 (serpin family A member 4) | 1 | 0.58 | migration reduced | 5441 | active |
| SERPINA4 (serpin family A member 4) | 2 | 0.88 | no change in migration or cell number | 4764 | inactive |
| SERPINA4 (serpin family A member 4) | 3 | 0.71 | no change in migration or cell number | 5313 | inactive |
| SERPINA4 (serpin family A member 4) | 4 | 0.63 | no change in migration or cell number | 4668 | inactive |
| PPIA (peptidylprolyl isomerase A) | 1 | 1.19 | no change in migration or cell number | 4643 | inactive |
| PPIA (peptidylprolyl isomerase A) | 2 | 1.25 | no change in migration or cell number | 4473 | inactive |
| PPIA (peptidylprolyl isomerase A) | 3 | 0.88 | no change in migration or cell number | 5058 | inactive |
| PPIA (peptidylprolyl isomerase A) | 4 | 1.06 | no change in migration or cell number | 6476 | inactive |
| DISC1 (DISC1 scaffold protein) | 1 | 0.9 | no change in migration or cell number | 5190 | inactive |
| DISC1 (DISC1 scaffold protein) | 2 | 1.12 | no change in migration or cell number | 5963 | inactive |
| DISC1 (DISC1 scaffold protein) | 3 | 1.06 | no change in migration or cell number | 6778 | inactive |
| DISC1 (DISC1 scaffold protein) | 4 | 0.69 | no change in migration or cell number | 5822 | inactive |
| ARL11 (ARF like GTPase 11) | 1 | 0.86 | no change in migration or cell number | 5811 | inactive |
| ARL11 (ARF like GTPase 11) | 2 | 0.56 | migration reduced | 3712 | active |
| ARL11 (ARF like GTPase 11) | 3 | 0.94 | no change in migration or cell number | 7009 | inactive |
| ARL11 (ARF like GTPase 11) | 4 | 0.82 | no change in migration or cell number | 5232 | inactive |
